# Assay results as given in the supplement of paper PMC8007513.
# The other results are listed elsewhere or left out. Single values are uncertain, as repeats are few or missing.
# Tested on: Saccharomyces cerevisiae BY4743
# Assay: growth (OD600) with compound + IPBC relative to untreated control; higher = less growth inhibition
# Conditions: compound concentration: 133 uM; IPBC concentration: 0.5 ug/ml; 20 h
# Method: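 NMCCC compounds (133 uM) combined with IPBC (0.5 ug/ml) against Saccharomyces cerevisiae BY4743 in YPD, 96-well plates. Growth was read as OD600 at 20 h and expressed as % of the untreated control. Single pass.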
row,SMILES,growth [%]
1,Cc1cc(C)n(CCNC(=O)C(=O)Nc2ccc3c(c2)nc(C(F)(F)F)n3C)n1 + CCCCNC(=O)OCC#CI [3-iodo-2-propynyl butylcarbamate (IPBC)],84.1
2,Cc1nc(NC(=O)CSc2nncn2C2CC2)sc1C + CCCCNC(=O)OCC#CI [3-iodo-2-propynyl butylcarbamate (IPBC)],92
3,O=C(CNc1nccs1)c1c[nH]c2ccccc12 + CCCCNC(=O)OCC#CI [3-iodo-2-propynyl butylcarbamate (IPBC)],89.8
4,CCOC(=O)c1cc(C)n(CCCN2CCOCC2)c1C + CCCCNC(=O)OCC#CI [3-iodo-2-propynyl butylcarbamate (IPBC)],95.2
5,Cc1nc2ncnn2c(O)c1Cc1ccccc1Cl + CCCCNC(=O)OCC#CI [3-iodo-2-propynyl butylcarbamate (IPBC)],112
6,CCOc1ccc(NC(=O)C2CCCCN2S(=O)(=O)c2ccc(Br)cc2)cc1 (stereo not given) + CCCCNC(=O)OCC#CI [3-iodo-2-propynyl butylcarbamate (IPBC)],88.2
7,Cn1cccc1C(=O)NC(=O)COc1ccccc1C#N + CCCCNC(=O)OCC#CI [3-iodo-2-propynyl butylcarbamate (IPBC)],95.1
8,Cc1noc(C(=O)N2CCC(Cc3ccccc3)CC2)c1Cl + CCCCNC(=O)OCC#CI [3-iodo-2-propynyl butylcarbamate (IPBC)],90.5
9,Cc1ccc(NC(=O)C(CC(C)C)NS(=O)(=O)c2ccc3c(c2)oc(=O)n3C)c(C)c1 (stereo not given) + CCCCNC(=O)OCC#CI [3-iodo-2-propynyl butylcarbamate (IPBC)],88.5
10,FC1=CC=CC(=C1)COC2=CC=C(NC(=O)CN3\C=C/C=C\C3=O)C=C2Cl + CCCCNC(=O)OCC#CI [3-iodo-2-propynyl butylcarbamate (IPBC)],106
11,CCOC(=O)c1cn(CC(=O)Nc2cc(C)cc(C)c2)nn1 + CCCCNC(=O)OCC#CI [3-iodo-2-propynyl butylcarbamate (IPBC)],90.3
12,CC(C)(C)NS(=O)(=O)c1ccc(C(=O)NCC(=O)N2CCc3ccccc32)cc1 + CCCCNC(=O)OCC#CI [3-iodo-2-propynyl butylcarbamate (IPBC)],98.3
13,CCCOc1ccc(C(F)(F)F)cc1NS(=O)(=O)c1ccc(CNC(C)=O)s1 + CCCCNC(=O)OCC#CI [3-iodo-2-propynyl butylcarbamate (IPBC)],100
14,O=C(CSc1ccc2c(c1)OCCCO2)NC1CCS(=O)(=O)C1 (stereo not given) + CCCCNC(=O)OCC#CI [3-iodo-2-propynyl butylcarbamate (IPBC)],104
15,N#Cc1c(O)nc(SCc2cccc(C(=O)O)c2)nc1-c1ccco1 + CCCCNC(=O)OCC#CI [3-iodo-2-propynyl butylcarbamate (IPBC)],89.2
16,COC1=CC=C(OC)C(=C1)C(=O)OCC(=O)N\2CC\C(=N2)C3=CC=CC=C3 + CCCCNC(=O)OCC#CI [3-iodo-2-propynyl butylcarbamate (IPBC)],97.6
17,CCCc1ccc(C(O)CSc2nnc(O)n2C2CC2)cc1 (stereo not given) + CCCCNC(=O)OCC#CI [3-iodo-2-propynyl butylcarbamate (IPBC)],102
18,CCN(C(=O)c1cc(OC)cc(OC)c1)c1nc2c(C)cccc2s1 + CCCCNC(=O)OCC#CI [3-iodo-2-propynyl butylcarbamate (IPBC)],104
19,O=C(CN1\N=N/C2=CC=CC=C2C1=O)NC3(CCCCC3)C#N + CCCCNC(=O)OCC#CI [3-iodo-2-propynyl butylcarbamate (IPBC)],105
20,CCS(=O)(=O)c1ccc2oc(SCC(=O)N3CC(C)OC(C)C3)nc2c1 (stereo not given) + CCCCNC(=O)OCC#CI [3-iodo-2-propynyl butylcarbamate (IPBC)],87.6

# Pulled one by one from above, two records:
row,SMILES,growth [%]
13,CCCOc1ccc(C(F)(F)F)cc1NS(=O)(=O)c1ccc(CNC(C)=O)s1 + CCCCNC(=O)OCC#CI [3-iodo-2-propynyl butylcarbamate (IPBC)],100
19,O=C(CN1\N=N/C2=CC=CC=C2C1=O)NC3(CCCCC3)C#N + CCCCNC(=O)OCC#CI [3-iodo-2-propynyl butylcarbamate (IPBC)],105

# Next part:

row,SMILES,growth [%]
1,CNc1nc(-c2ccc(OC(F)F)c(OC)c2)cs1 + CCCCNC(=O)OCC#CI [3-iodo-2-propynyl butylcarbamate (IPBC)],98.3
2,COC(=O)c1ccc(CS(=O)(=O)N2CCCC2c2ccc(OC)c(OC)c2)cc1 (stereo not given) + CCCCNC(=O)OCC#CI [3-iodo-2-propynyl butylcarbamate (IPBC)],109
3,CCOC(=O)c1ccccc1NS(=O)(=O)c1ccc(S(=O)(=O)N2CCCC2)cc1 + CCCCNC(=O)OCC#CI [3-iodo-2-propynyl butylcarbamate (IPBC)],86.2
4,CCOC1=CC=C(NC(=O)CS\C2=C(/C#N)C(CC(=O)N2)C3=CC=CS3)C=C1 (stereo not given) + CCCCNC(=O)OCC#CI [3-iodo-2-propynyl butylcarbamate (IPBC)],84.7
5,CCOC(=O)c1cc(C)n(CC2CCC(C(=O)Nc3ccccc3OCC)CC2)c1C (stereo not given) + CCCCNC(=O)OCC#CI [3-iodo-2-propynyl butylcarbamate (IPBC)],96.4
6,COC(=O)c1c(NC(=O)CSc2nc(O)c3ccccc3n2)sc(C)c1C + CCCCNC(=O)OCC#CI [3-iodo-2-propynyl butylcarbamate (IPBC)],96.1
7,Cc1cccc(-c2csc(N)c2C(=O)OC(C)C)c1 + CCCCNC(=O)OCC#CI [3-iodo-2-propynyl butylcarbamate (IPBC)],13
8,CCOc1ccccc1NC(=O)CN1C(=O)CCSc2ccccc21 + CCCCNC(=O)OCC#CI [3-iodo-2-propynyl butylcarbamate (IPBC)],105
9,OC1(C\C(=N/N1C(=O)C2CC2)C3=CC=CC=C3)C(F)(F)F (stereo not given) + CCCCNC(=O)OCC#CI [3-iodo-2-propynyl butylcarbamate (IPBC)],101
10,CC(C)C1=CC=CC(=C1NC(=O)CN(C)\C2=N\[S](=O)(=O)C3=CC=CC=C23)C(C)C + CCCCNC(=O)OCC#CI [3-iodo-2-propynyl butylcarbamate (IPBC)],105
11,Cc1noc(C(=O)N2CCC3(CC2)OCCO3)c1Cl + CCCCNC(=O)OCC#CI [3-iodo-2-propynyl butylcarbamate (IPBC)],111
12,CCc1ccc(CN(CC(=O)N2CCNCC2)S(=O)(=O)c2cc(C)c(C)cc2C)cc1 + CCCCNC(=O)OCC#CI [3-iodo-2-propynyl butylcarbamate (IPBC)],4.08
13,Cc1c(C(=O)O)cc(-c2ccc(F)cc2)n1C + CCCCNC(=O)OCC#CI [3-iodo-2-propynyl butylcarbamate (IPBC)],80.2
14,CCOC(=O)C(=O)N1\N=C(/CC1(O)C(C)(C)C)C(F)(F)F (stereo not given) + CCCCNC(=O)OCC#CI [3-iodo-2-propynyl butylcarbamate (IPBC)],92.3
15,CC(C)CCNC(=O)CN1C(=O)CSc2ncccc21 + CCCCNC(=O)OCC#CI [3-iodo-2-propynyl butylcarbamate (IPBC)],104
16,CC(C)CCNC(=O)CS\C1=N\C2=C(SC=C2)C(=O)N1NC(=O)C3=CC=CC=C3 + CCCCNC(=O)OCC#CI [3-iodo-2-propynyl butylcarbamate (IPBC)],87.2
17,CCS(=O)(=O)N1Cc2ccccc2CC1C(=O)Nc1ccc(Br)cc1F (stereo not given) + CCCCNC(=O)OCC#CI [3-iodo-2-propynyl butylcarbamate (IPBC)],93.4
18,O=C(NCc1ccco1)N1CCN(c2ccccn2)CC1 + CCCCNC(=O)OCC#CI [3-iodo-2-propynyl butylcarbamate (IPBC)],86.8
19,O=C(c1cc[nH]n1)N1CCc2sccc2C1 + CCCCNC(=O)OCC#CI [3-iodo-2-propynyl butylcarbamate (IPBC)],97.8
20,CCCCn1c(=O)[nH]c2nc3cc(NC(C)=O)ccc3nc2c1=O + CCCCNC(=O)OCC#CI [3-iodo-2-propynyl butylcarbamate (IPBC)],95.2
